The supplement of paper PMC6078165

Tested on: BT20
Assay: relative JC-1 red fluorescence (viability) vs pre-drug, coculture with fibroblast (fraction); higher = more viable cancer cells
Method: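 JC-1 labelled TNBC cells cocultured 1:1 (1,500 cells each) with CellTrace Violet stained primary or stromal fibroblasts in 384-well plates in FluoroBrite medium, treated with one of 42 anticancer drugs at 0.1, 1, 10 or 100 uM. JC-1 red fluorescence (mitochondrial integrity in cancer cells only) was read by plate reader every 8 h for 72 h. Values are normalised to each well's pre-drug value. The stock of one drug was tenfold lower, so its dose labels may be too high.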

CC/C(=C(\c1ccccc1)c1ccc(OCCN(C)C)cc1)c1ccccc1 [Tamoxifen]
relative JC-1 red fluorescence
Details	8 h	16 h	24 h	32 h	40 h	48 h	56 h	64 h	72 h
0.1 µM, coculture fibroblast: C12385	0.9381	0.812	0.832	0.779	0.725	0.708	0.681	0.678	0.667
0.1 µM, coculture fibroblast: H6013	0.963	0.849	0.8078	0.762	0.709	0.685	0.673	0.656	0.628
0.1 µM, coculture fibroblast: H6019	0.917	0.859	0.842	0.807	0.766	0.744	0.707	0.662	0.632
0.1 µM, coculture fibroblast: H6076	0.961	0.93333	0.858	0.823	0.78	0.748	0.728	0.721	0.702
0.1 µM, coculture fibroblast: H6231	0.731	0.915	0.77	0.703	0.65	0.604	0.57	0.54	0.516
0.1 µM, coculture fibroblast: HADF	0.867	0.883	0.808	0.76	0.698	0.651	0.623	0.598	0.567
0.1 µM, coculture fibroblast: HCFa	0.933	0.831	0.781	0.709	0.654	0.611	0.576	0.54	0.494
0.1 µM, coculture fibroblast: HCPF	0.934	0.893	0.797	0.742	0.711	0.673	0.63	0.628	0.589
0.1 µM, coculture fibroblast: HHSteC	0.96	0.855	0.837	0.773	0.722	0.686	0.655	0.631	0.59
0.1 µM, coculture fibroblast: HMF	0.856	0.877	0.797	0.752	0.712	0.674	0.641	0.618	0.5974
0.1 µM, coculture fibroblast: HPFa	0.943	0.864	0.849	0.773	0.742	0.686	0.661	0.626	0.561
0.1 µM, coculture fibroblast: HUF	0.9157	0.8006	0.7581	0.679	0.628	0.5812	0.5638	0.546	0.533
0.1 µM, coculture fibroblast: Hs5	0.968	0.8897	0.8264	0.779	0.742	0.709	0.68	0.65	0.612
0.1 µM, coculture fibroblast: Hs27A	0.763	0.807	0.864	0.837	0.855	0.862	0.93	0.938	0.867
0.1 µM, coculture fibroblast: Hs343T	0.845	0.857	0.76	0.719	0.6785	0.6349	0.5904	0.575	0.548
0.1 µM, coculture fibroblast: WS1	0.87861	0.7375	0.716	0.651	0.596	0.575	0.547	0.536	0.524
1 µM, coculture fibroblast: C12385	0.895	0.813	0.776	0.72	0.673	–	–	–	–
1 µM, coculture fibroblast: H6013	0.893	0.877	0.864	0.813	0.777	–	–	–	–
1 µM, coculture fibroblast: H6019	0.865	0.8284	0.853	0.808	0.774	–	–	–	–
1 µM, coculture fibroblast: H6076	0.952	0.9019	0.842	0.815	0.787	–	–	–	–
1 µM, coculture fibroblast: H6231	0.737	0.892	0.777	0.731	0.681	–	–	–	–
1 µM, coculture fibroblast: HADF	0.912	0.923	0.924	0.871	0.848	–	–	–	–
1 µM, coculture fibroblast: HCFa	0.93	0.875	0.866	0.813	0.77	–	–	–	–
1 µM, coculture fibroblast: HCPF	0.911	0.826	0.793	0.756	0.728	–	–	–	–
1 µM, coculture fibroblast: HHSteC	0.941	0.868	0.89	0.819	–	–	–	–	–
1 µM, coculture fibroblast: HMF	0.981	0.822	0.748	0.689	–	–	–	–	–
1 µM, coculture fibroblast: HPFa	0.851	0.917	0.8894	0.7932	–	–	–	–	–
1 µM, coculture fibroblast: HUF	0.939	0.845	0.816	0.742	–	–	–	–	–
1 µM, coculture fibroblast: Hs5	0.932	0.921	0.871	0.8185	–	–	–	–	–
1 µM, coculture fibroblast: Hs27A	0.835	0.896	0.916	0.8937	–	–	–	–	–
1 µM, coculture fibroblast: Hs343T	0.919	0.834	0.804	0.753	–	–	–	–	–
1 µM, coculture fibroblast: WS1	0.858	0.739	0.711	0.644	–	–	–	–	–

Values are relative to the signal before dosing, not to a vehicle control; the signal also falls without drug.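 Fibroblast labels denote human fibroblasts, mainly primary ones from uterus (C12385, HUF), lung (H6013), bone (Hs27A), adrenal (HADF) and skin (WS1), plus mammary HMF and breast cancer-associated Hs343T. Cancer cells are basal-like or mesenchymal-like triple-negative breast cancer lines. A hit is a response shift exceeding 3x replicate standard deviation. The tissue of the other fibroblasts is not given here.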
